Results as given in patent publication US20050261190A1.
No constants are given. Whether binding was seen depends on the method and setting. For part of these data: Binding seen in cells or lysates may run through a third protein. Some results given as binding are weak or reduced against the parent protein; the word gives no strength.

By UniProt entry, the sequences of proteins in these tests, tags left out. Where a name states a change or a piece, a line headed by the entry shows the natural chain unless it says otherwise. Residues count along the entry.
UniProt P0DMV8: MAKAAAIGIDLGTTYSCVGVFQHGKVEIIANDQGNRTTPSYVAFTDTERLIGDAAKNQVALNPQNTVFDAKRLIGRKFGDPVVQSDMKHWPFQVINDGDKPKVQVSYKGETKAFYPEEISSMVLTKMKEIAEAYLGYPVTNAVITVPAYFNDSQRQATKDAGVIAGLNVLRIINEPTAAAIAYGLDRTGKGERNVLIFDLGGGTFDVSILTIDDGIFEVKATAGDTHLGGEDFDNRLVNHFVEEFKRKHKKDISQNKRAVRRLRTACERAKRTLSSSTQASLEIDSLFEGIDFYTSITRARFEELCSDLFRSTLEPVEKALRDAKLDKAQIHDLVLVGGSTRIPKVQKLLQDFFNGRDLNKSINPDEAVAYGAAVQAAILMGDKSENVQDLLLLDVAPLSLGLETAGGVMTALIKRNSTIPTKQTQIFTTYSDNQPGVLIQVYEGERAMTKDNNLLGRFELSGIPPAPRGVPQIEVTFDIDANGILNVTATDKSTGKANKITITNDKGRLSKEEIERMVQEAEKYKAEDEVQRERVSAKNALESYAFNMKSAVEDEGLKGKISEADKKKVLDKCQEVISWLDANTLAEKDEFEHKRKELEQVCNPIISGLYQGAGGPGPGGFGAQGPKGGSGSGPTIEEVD
GST-Hsp70 (full Hsp70, 1-640): residues 1-640 of P0DMV8
GST-Hsp70 (1-120): residues 1-120 of P0DMV8
heat shock protein 70 inducible (Hsp70), endogenous: residues 2-641 of P0DMV8
UniProt P11142, residues 2-646: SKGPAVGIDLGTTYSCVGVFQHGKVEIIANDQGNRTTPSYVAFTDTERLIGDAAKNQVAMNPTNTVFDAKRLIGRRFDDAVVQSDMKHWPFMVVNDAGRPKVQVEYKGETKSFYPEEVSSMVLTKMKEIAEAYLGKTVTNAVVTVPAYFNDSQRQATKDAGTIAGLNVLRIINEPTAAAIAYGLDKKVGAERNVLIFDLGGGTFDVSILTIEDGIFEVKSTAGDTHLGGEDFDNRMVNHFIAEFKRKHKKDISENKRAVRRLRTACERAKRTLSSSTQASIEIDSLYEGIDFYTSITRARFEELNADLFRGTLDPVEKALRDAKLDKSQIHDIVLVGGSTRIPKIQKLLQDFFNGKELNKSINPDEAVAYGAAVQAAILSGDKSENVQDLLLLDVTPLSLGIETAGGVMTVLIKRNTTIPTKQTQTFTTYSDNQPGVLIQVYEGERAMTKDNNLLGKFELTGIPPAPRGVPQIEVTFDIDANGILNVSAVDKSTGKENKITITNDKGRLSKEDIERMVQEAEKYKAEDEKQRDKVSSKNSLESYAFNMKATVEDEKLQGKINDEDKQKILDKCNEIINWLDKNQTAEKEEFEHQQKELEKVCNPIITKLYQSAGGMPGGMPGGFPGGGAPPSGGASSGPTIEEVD
UniProt P08622, residues 2-376: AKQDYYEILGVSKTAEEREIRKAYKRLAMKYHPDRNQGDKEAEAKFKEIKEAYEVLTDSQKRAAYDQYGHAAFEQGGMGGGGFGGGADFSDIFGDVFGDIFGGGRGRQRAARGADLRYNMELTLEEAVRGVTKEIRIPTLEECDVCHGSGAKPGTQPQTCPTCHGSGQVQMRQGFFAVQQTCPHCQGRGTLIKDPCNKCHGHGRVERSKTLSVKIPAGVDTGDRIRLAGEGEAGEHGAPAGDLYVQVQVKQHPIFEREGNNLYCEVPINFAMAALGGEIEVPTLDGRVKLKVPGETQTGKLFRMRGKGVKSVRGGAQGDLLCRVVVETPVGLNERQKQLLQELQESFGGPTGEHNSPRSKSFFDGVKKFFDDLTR
UniProt Q9UNN5: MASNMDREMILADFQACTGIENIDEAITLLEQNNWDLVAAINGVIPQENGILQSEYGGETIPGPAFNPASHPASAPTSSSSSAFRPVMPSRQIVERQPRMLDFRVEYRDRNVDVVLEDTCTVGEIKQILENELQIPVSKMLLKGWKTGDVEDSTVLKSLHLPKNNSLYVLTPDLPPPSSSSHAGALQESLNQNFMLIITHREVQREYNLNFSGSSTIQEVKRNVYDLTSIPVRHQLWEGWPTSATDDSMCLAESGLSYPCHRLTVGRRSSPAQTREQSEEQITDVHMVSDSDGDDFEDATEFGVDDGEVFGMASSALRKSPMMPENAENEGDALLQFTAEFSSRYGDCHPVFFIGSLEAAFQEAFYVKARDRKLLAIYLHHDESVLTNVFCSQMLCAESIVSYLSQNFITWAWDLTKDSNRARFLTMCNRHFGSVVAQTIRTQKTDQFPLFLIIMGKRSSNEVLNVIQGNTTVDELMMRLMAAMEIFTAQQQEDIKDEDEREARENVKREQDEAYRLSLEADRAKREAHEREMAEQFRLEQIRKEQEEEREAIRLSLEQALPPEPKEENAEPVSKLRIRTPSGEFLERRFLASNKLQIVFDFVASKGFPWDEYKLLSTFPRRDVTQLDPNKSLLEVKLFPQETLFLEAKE

Experiments:
[1] = molecular target: heat shock protein 70 inducible (Hsp70), endogenous (human) (UniProt P0DMV8); test: co-immunoprecipitation with anti-Flag M2 agarose from HEK293T lysate, western blot
[2] = molecular target: heat shock protein 70 cognate (Hsc70), endogenous (human) (UniProt P11142); test: as above
[3] = molecular target: heat shock protein 70 inducible (Hsp70), endogenous (human) (UniProt P0DMV8); test: co-immunoprecipitation from HEK293T lysate, western blot (FIG. 3C)
[4] = molecular target: heat shock protein 70 cognate (Hsc70), endogenous (human) (UniProt P11142); test: as above
[5] = molecular target: heat shock protein 70 inducible (Hsp70), endogenous (human) (UniProt P0DMV8); test: co-immunoprecipitation from HEK293T lysate, western blot (FIG. 3)
[6] = molecular target: heat shock protein 70 cognate (Hsc70), endogenous (human) (UniProt P11142); test: as above
[7] = molecular target: heat shock protein 70 inducible (Hsp70), endogenous (human) (UniProt P0DMV8); test: immunoprecipitation with polyclonal anti-hFAF1 antibody from HEK293T cells, western blot
[8] = molecular target: heat shock protein 70 cognate (Hsc70), endogenous (human) (UniProt P11142); test: as above
[9] = molecular target: heat shock protein 70 inducible (Hsp70), endogenous (human) (UniProt P0DMV8); test: immunoprecipitation with polyclonal anti-hFAF1 antibody, western blot (FIG. 2)
[10] = molecular target: heat shock protein 70 cognate (Hsc70), endogenous (human) (UniProt P11142); test: as above
[11] = molecular target: GST-Hsp70 (1-120) (human) (UniProt P0DMV8); test: GST pull-down with GST-Hsp70 deletion mutants, with or without 10 mM ATP (FIG. 4)
[12] = molecular target: GST-Hsp70 (full Hsp70, 1-640) (human) (UniProt P0DMV8); test: GST pull-down on glutathione sepharose without ATP, immunoblot
[13] = molecular target: DnaJ (E. coli) (UniProt P08622); test: co-purification from E. coli lysate
[14] = molecular target: GST-Hsp70 (1-120) (human) (UniProt P0DMV8); test: GST pull-down on glutathione sepharose in the presence of 10 mM ATP, immunoblot

Measured: binding

Flag-hFAF1[1-201] (from UniProt Q9UNN5 1-201)
binds: [1] | [2]

Flag-hFAF1[1-345] (from UniProt Q9UNN5 1-345)
binds: [1] | [2]

Flag-hFAF1[82-650] (from UniProt Q9UNN5 82-650)
binds: [1] | [2]

Flag-tagged hFAF1 fragment, amino acid 82-180 (from UniProt Q9UNN5 82-180)
binds: [3] | [4] | [5] | [6]

endogenous hFAF1 (from UniProt Q9UNN5 1-650)
binds: [7] | [8] | [9] | [10]

purified recombinant hFAF1 (from UniProt Q9UNN5 1-650)
binds: [11] | [12] | [13] | [14]
